The exact form of at least one protein or probe is not confirmed. For some of these results: Weaker means in comparison with the reference protein, sequence or condition of that experiment. For some of these results: At least one result comes from cells or an extract, where the contact may be indirect. For some of these results: Negatives hold for the conditions tested. For some of these results: Whether high values mean tight binding is not given here for every scale.
Tests used:
[1] = target: HOXA2-Flag (Homo sapiens) (UniProt O43364); test: pull-down; settings: HOXA2-expressing HK1 extract, Pull-down: 100-250 pmole probe on M-280 streptavidin Dynabeads, 100-250 ug nuclear extract, 2.5 ug salmon sperm DNA, 1 h room temperature, washes with 0.5% NP-40, protein in a lysate after overexpression, protein details: Flag, label: 5'-biotin
[2] = target: p300-3F (Flag-tagged p300) (UniProt Q09472); test: pull-down; settings: Pull-down: 100-250 pmole probe on M-280 streptavidin Dynabeads, 100-250 ug nuclear extract, 2.5 ug salmon sperm DNA, 1 h room temperature, washes with 0.5% NP-40, protein in a lysate after overexpression, protein details: Flag (3F), label: 5'-biotin
[3] = target: recombinant His-HOXA2 (UniProt O43364); test: EMSA; settings: binding dropped dramatically; EMSA: LightShift kit, 20 fmol probe, 37 C 20 min, 6% gel in 1X TBE; salt and pH not given; recombinant protein; protein details: His; label: 5'-biotin
[4] = target: recombinant His-TBP (UniProt P20226); test: EMSA; settings: binding dropped dramatically; EMSA: LightShift kit, 20 fmol probe, 37 C 20 min, 6% gel in 1X TBE; salt and pH not given; recombinant protein; protein details: His; label: 5'-biotin
[5] = target: TBP (endogenous) (UniProt P20226); test: pull-down; settings: Pull-down: 100-250 pmole probe on M-280 streptavidin Dynabeads, 100-250 ug nuclear extract, 2.5 ug salmon sperm DNA, 1 h room temperature, washes with 0.5% NP-40, protein in an extract, label: 5'-biotin

By UniProt entry, the sequences of proteins in these tests, tags left out. Where a name states a change or a piece, a line headed by the entry shows the natural chain unless it says otherwise.
UniProt O43364: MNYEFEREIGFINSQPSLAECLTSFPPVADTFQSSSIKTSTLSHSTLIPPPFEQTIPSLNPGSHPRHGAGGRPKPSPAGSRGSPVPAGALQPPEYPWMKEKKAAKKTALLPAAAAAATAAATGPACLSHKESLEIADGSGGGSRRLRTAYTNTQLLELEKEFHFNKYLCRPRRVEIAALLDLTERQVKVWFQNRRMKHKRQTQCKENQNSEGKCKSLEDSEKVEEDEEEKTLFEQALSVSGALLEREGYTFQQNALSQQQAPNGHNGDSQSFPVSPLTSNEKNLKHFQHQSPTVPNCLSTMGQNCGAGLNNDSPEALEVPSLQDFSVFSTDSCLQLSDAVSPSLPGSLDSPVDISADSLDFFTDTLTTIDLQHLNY
UniProt Q09472, whole entry: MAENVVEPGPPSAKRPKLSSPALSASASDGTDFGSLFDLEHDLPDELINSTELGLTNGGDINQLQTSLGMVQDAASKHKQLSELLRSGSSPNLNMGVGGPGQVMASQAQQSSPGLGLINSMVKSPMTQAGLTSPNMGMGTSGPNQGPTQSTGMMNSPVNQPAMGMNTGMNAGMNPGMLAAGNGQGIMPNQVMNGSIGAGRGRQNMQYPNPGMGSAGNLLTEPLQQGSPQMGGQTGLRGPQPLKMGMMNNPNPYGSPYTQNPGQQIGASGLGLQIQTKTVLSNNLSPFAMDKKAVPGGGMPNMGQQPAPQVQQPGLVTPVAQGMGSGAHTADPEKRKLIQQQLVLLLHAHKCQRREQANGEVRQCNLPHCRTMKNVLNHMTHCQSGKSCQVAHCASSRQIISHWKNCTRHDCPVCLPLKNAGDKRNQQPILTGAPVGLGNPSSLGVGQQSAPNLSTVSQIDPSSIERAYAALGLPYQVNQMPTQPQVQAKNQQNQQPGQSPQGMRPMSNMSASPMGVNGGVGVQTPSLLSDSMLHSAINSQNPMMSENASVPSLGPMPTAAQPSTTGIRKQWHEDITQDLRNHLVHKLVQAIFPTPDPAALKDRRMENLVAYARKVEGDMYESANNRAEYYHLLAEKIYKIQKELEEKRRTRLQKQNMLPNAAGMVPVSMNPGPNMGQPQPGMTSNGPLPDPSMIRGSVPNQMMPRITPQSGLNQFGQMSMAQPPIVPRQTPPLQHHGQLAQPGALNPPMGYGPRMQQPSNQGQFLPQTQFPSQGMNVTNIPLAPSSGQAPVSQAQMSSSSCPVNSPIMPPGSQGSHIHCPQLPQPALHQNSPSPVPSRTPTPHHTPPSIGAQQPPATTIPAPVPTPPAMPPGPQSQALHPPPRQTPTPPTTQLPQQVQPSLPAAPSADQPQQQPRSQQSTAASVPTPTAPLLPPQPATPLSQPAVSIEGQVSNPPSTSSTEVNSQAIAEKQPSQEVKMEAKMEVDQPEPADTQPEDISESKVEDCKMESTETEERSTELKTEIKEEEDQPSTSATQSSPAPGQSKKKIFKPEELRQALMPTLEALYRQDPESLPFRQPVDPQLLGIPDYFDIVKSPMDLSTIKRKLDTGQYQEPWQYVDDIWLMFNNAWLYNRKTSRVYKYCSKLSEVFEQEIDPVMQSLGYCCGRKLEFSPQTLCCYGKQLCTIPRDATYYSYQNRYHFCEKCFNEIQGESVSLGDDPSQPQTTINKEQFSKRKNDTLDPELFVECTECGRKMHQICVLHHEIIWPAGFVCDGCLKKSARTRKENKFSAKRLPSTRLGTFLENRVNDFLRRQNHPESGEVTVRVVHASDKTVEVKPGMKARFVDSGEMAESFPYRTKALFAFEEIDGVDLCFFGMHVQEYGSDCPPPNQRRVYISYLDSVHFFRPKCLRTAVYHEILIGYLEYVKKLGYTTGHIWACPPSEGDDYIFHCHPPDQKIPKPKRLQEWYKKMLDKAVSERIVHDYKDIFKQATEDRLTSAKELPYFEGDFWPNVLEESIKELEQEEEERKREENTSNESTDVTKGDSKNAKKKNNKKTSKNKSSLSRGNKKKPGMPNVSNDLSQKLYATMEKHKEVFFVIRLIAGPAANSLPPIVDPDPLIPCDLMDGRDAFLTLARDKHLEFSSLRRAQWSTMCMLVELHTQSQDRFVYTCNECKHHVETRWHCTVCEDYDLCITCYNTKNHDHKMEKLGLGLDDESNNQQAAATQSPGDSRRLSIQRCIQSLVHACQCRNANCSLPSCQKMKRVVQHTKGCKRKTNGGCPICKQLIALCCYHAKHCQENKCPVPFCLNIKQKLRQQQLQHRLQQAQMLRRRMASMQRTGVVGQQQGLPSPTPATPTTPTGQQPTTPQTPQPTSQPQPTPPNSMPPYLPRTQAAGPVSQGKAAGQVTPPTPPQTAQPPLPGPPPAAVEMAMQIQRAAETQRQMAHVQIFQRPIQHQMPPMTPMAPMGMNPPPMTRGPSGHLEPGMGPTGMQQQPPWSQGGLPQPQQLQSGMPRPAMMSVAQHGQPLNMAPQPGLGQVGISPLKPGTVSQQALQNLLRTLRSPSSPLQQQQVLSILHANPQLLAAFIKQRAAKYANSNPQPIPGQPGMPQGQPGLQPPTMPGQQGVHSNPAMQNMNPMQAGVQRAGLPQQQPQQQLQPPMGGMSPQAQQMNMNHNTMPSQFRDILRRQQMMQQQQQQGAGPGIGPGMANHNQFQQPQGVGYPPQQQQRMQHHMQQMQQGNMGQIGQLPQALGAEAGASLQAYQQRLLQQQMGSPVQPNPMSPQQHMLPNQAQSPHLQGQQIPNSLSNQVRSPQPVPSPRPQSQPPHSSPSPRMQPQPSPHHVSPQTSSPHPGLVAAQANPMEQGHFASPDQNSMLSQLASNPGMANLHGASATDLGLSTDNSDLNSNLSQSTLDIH
UniProt P20226, whole entry: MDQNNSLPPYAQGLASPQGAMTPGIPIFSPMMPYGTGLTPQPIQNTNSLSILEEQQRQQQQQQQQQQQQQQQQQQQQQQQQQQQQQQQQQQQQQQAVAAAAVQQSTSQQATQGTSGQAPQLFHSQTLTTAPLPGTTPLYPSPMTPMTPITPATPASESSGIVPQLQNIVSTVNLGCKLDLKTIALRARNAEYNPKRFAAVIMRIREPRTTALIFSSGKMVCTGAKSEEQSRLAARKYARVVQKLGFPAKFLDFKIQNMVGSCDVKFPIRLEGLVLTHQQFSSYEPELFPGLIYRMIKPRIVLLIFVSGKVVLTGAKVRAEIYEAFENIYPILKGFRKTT

Sequence: AAAAATAAAATAAAATAAATAAATA (double strand) [MMP9 control (putative HOXA2-response element, -1421)]
- binding result ([1]; 'little or no' binding): no binding

Sequence: CCCCCAAAAAAAAAGGG (double strand) [HOXA2 p300-1 MT]
- binding result [2]: no binding

Sequence: CCCCCACGTACTCCGGG (double strand) [HOXA2 p300-1 ME]
- binding signal ([2]; CpG methylated, 5-methylcytosine at CpG: strand 1 C7 and C14, strand 2 C3 and C10): 0.6 fold of WT

Sequence: CCCCCACGTACTCCGGG (double strand) [HOXA2 p300-1 WT]
- binding signal ([2]; reference): 1 fold of WT

Sequence: GAGCGCCTCCGGGGGGCCCCCACAA (double strand) [MMP9 TATA MT]
- binding result [3]: binds more weakly
- binding result [4]: binds more weakly

Sequence: GAGCGCCTCCTTAAAGCCCCCACAA (double strand) [MMP9 TATA WT]
- binding result [1]: binds
- binding result ([5]; HOXA2-expressing HK1 extract): binds more weakly
- binding result ([5]; vector HK1 extract): binds

Sequence: GGGAGTGGGGAGTGGGGAGTGAAA (double strand) [3 copies of p300 consensus (P)]
- binding result [2]: binds

— PMC3875777
